Some of these results come from one statement about several compounds together.
Target: truncated form of human NaV 1.8 with full channel activity (expressed in HEK cells) (Homo sapiens, UniProt Q9Y5Y9)
Assay: E-VIPR assay detecting and measuring NaV inhibition properties (electrical stimulation, membrane potential FRET dyes)
Assay type: cell-based
Conditions: HEK cells expressing truncated human NaV 1.8, KIR2.1 BacMam; 11-point dose response; 30 min compound incubation; stimulation 10 Hz for 10 s; read-out: measured IC50 value in the E-VIPR Assay

Amino acid sequences for entries named in this document (tags omitted). Residues count along the entry.
UniProt Q9Y5Y9, 126-1722 limits assumed: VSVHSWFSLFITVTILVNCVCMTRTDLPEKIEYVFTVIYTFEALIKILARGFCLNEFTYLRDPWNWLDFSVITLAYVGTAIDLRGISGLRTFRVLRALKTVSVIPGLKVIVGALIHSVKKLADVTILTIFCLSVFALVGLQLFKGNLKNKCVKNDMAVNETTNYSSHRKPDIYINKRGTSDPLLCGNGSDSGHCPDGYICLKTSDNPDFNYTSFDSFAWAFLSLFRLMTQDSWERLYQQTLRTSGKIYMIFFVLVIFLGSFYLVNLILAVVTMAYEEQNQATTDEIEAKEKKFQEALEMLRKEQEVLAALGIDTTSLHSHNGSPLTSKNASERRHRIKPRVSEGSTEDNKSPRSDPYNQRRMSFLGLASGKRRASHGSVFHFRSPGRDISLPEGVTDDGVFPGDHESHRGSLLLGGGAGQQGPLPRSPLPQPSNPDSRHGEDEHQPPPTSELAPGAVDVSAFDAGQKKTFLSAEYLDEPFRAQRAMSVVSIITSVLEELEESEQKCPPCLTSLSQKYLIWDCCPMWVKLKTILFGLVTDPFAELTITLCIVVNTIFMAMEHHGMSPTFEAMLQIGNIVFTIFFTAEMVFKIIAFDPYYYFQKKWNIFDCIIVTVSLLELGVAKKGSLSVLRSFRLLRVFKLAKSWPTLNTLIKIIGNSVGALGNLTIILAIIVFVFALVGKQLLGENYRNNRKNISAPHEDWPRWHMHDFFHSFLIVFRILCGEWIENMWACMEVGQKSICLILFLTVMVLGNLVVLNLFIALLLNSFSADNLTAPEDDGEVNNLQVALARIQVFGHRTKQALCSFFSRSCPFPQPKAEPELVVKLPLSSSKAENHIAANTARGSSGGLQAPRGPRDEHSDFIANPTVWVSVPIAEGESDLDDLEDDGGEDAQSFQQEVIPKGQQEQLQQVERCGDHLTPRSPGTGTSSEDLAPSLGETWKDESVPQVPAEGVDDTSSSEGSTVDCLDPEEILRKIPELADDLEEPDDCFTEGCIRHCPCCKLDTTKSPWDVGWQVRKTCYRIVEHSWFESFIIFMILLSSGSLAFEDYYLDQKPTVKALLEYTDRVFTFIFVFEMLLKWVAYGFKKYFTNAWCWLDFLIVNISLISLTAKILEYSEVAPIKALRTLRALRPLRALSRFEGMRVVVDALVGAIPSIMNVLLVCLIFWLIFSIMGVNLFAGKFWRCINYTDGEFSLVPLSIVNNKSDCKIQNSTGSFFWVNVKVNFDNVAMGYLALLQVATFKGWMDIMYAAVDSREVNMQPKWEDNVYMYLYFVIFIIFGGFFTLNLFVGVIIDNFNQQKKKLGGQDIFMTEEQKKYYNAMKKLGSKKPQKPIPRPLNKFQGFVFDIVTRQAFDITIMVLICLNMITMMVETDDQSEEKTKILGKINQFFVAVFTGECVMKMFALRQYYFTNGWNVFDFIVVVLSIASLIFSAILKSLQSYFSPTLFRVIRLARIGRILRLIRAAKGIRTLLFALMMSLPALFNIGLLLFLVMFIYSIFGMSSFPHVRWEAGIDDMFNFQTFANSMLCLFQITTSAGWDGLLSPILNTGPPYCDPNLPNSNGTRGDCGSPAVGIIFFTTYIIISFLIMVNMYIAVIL

SMILES: NC(=O)c1nccc2[nH]c(-c3ccc(C4CC(F)(F)C4)cc3C3CCC(F)(F)CC3)cc(=O)c12 [Compound 110, 2-[4-(3,3-difluorocyclobutyl)-2-(4,4-difluorocyclohexyl)phenyl]-4-oxo-1H-1,6-naphthyridine-5-carboxamide]
- IC50: < 500 nM

SMILES: COc1c(Oc2cc(C(F)(F)F)c(F)cc2-c2cc(=O)c3c(N=S4(=O)CCN(C)CC4)nccc3[nH]2)ccc(F)c1F [Compound 207, 2-[2-(3,4-difluoro-2-methoxy-phenoxy)-5-fluoro-4-(trifluoromethyl)phenyl]-5-[(4-methyl-1-oxo-1,4-thiazinan-1-ylidene)amino]-1H-1,6-naphthyridin-4-one]
- IC50: < 500 nM

SMILES: COc1cccc(C(CO)NC(=O)c2nccc3[nH]c(-c4c(Oc5ccc(F)c(F)c5C)ncc(C(F)(F)F)c4C)cc(=O)c23)c1 (centres unmarked) [Compound 265, 2-[2-(3,4-difluoro-2-methyl-phenoxy)-4-methyl-5-(trifluoromethyl)-3-pyridyl]-N-[2-hydroxy-1-(3-methoxyphenyl)ethyl]-4-oxo-1H-1,6-naphthyridine-5-carboxamide]
- IC50: < 500 nM

SMILES: Cc1c(Oc2ncc(C(F)(F)F)c(C)c2-c2cc(=O)c3c(-n4ccnc4)nccc3[nH]2)ccc(F)c1F [Compound 213, 2-[2-(3,4-difluoro-2-methyl-phenoxy)-4-methyl-5-(trifluoromethyl)-3-pyridyl]-5-imidazol-1-yl-1H-1,6-naphthyridin-4-one]
- IC50: < 500 nM

SMILES: COc1cc(F)ccc1Oc1cc(C(C)(C)C)cc(C)c1-c1[nH]c2ccccc2c(=O)c1CN [Compound 339, 3-(aminomethyl)-2-[4-tert-butyl-2-(4-fluoro-2-methoxy-phenoxy)-6-methyl-phenyl]-1H-quinolin-4-one]
- IC50: < 500 nM

SMILES: NC(=O)c1nccc2[nH]c(-c3cc4ccccc4nc3N3CCCC4(CCC4)C3)cc(=O)c12 [Compound 296, 2-[2-(6-azaspiro[3.5]nonan-6-yl)-3-quinolyl]-4-oxo-1H-1,6-naphthyridine-5-carboxamide]
- IC50: < 500 nM

SMILES: Cc1c(Oc2ncc(C(F)(F)F)c(CO)c2-c2cc(=O)c3c(C(N)=O)nccc3[nH]2)ccc(F)c1F [Compound 146, 2-[2-(3,4-difluoro-2-methyl-phenoxy)-4-(hydroxymethyl)-5-(trifluoromethyl)-3-pyridyl]-4-oxo-1H-1,6-naphthyridine-5-carboxamide]
- IC50: < 500 nM

SMILES: CO[C@@H]1CN(c2nc3ccccc3cc2-c2cc(=O)c3c(C(N)=O)nccc3[nH]2)C[C@@H]1C [Compound 286, 2-[2-[(3S,4S)-3-methoxy-4-methyl-pyrrolidin-1-yl]-3-quinolyl]-4-oxo-1H-1,6-naphthyridine-5-carboxamide]
- IC50: < 500 nM

SMILES: Cn1ncnc1-c1nccc2[nH]c(-c3cnc(C4CC(F)(F)C4)cc3C3CCC(C(F)(F)F)CC3)cc(=O)c12 (centres unmarked) [Compound 236, 2-[6-(3,3-difluorocyclobutyl)-4-[4-(trifluoromethyl)cyclohexyl]-3-pyridyl]-5-(2-methyl-1,2,4-triazol-3-yl)-1H-1,6-naphthyridin-4-one]
- IC50: < 500 nM

SMILES: NC(=O)c1nccc2[nH]c(-c3cnc(C4CC(F)(F)C4)cc3CC3CCCCC3)cc(=O)c12 [Compound 113, 2-[4-(cyclohexylmethyl)-6-(3,3-difluorocyclobutyl)-3-pyridyl]-4-oxo-1H-1,6-naphthyridine-5-carboxamide]
- IC50: < 500 nM

SMILES: Cc1c(Oc2ncc(C(F)(F)F)c(C)c2-c2cc(=O)c3c(C(=O)N[C@H](C)[C@@H](O)c4ccccc4)nccc3[nH]2)ccc(F)c1F [Compound 269, 2-[2-(3,4-difluoro-2-methyl-phenoxy)-4-methyl-5-(trifluoromethyl)-3-pyridyl]-N-[(1R,2S)-2-hydroxy-1-methyl-2-phenyl-ethyl]-4-oxo-1H-1,6-naphthyridine-5-carboxamide]
- IC50: < 500 nM

SMILES: Cc1c(Oc2ncc(C(F)(F)F)c(C)c2-c2cc(=O)c3c(N4CCN(C(C)C)CC4)nccc3[nH]2)ccc(F)c1F [Compound 182, 2-[2-(3,4-difluoro-2-methyl-phenoxy)-4-methyl-5-(trifluoromethyl)-3-pyridyl]-5-(4-isopropylpiperazin-1-yl)-1H-1,6-naphthyridin-4-one]
- IC50: < 500 nM

SMILES: CC1CCC(c2nc(C3CC(F)(F)C3)ncc2-c2cc(=O)c3c(C(N)=O)nccc3[nH]2)CC1 (centres unmarked) [Compound 147, 2-[2-(3,3-difluorocyclobutyl)-4-(4-methylcyclohexyl)pyrimidin-5-yl]-4-oxo-1H-1,6-naphthyridine-5-carboxamide]
- IC50: < 500 nM

SMILES: Cc1c(Oc2ncc(C(F)(F)F)c(C)c2-c2cc(=O)c3c(C(=O)N[C@@H]4CCC[C@H]4O)nccc3[nH]2)ccc(F)c1F [Compound 271, 2-[2-(3,4-difluoro-2-methyl-phenoxy)-4-methyl-5-(trifluoromethyl)-3-pyridyl]-N-[(1R,2R)-2-hydroxycyclopentyl]-4-oxo-1H-1,6-naphthyridine-5-carboxamide]
- IC50: < 500 nM

SMILES: COC1CCCCC1NC(=O)c1nccc2[nH]c(-c3c(Oc4ccc(F)c(F)c4C)ncc(C(F)(F)F)c3C)cc(=O)c12 (centres unmarked) [Compound 275, 2-[2-(3,4-difluoro-2-methyl-phenoxy)-4-methyl-5-(trifluoromethyl)-3-pyridyl]-N-(2-methoxycyclohexyl)-4-oxo-1H-1,6-naphthyridine-5-carboxamide]
- IC50: < 500 nM

SMILES: Cc1cc(F)ccc1-n1nc(C(C)(C)C)c(C)c1-c1cc(=O)c2c(C(N)=O)nccc2[nH]1 [Compound 357, 2-[5-tert-butyl-2-(4-fluoro-2-methyl-phenyl)-4-methyl-pyrazol-3-yl]-4-oxo-1H-1,6-naphthyridine-5-carboxamide]
- IC50: < 500 nM

SMILES: Cc1c(Oc2ncc(C(F)(F)F)c(C)c2-c2cc(=O)c3c(C(=O)NC[C@H](O)CO)nccc3[nH]2)ccc(F)c1F [Compound 255, 2-[2-(3,4-difluoro-2-methyl-phenoxy)-4-methyl-5-(trifluoromethyl)-3-pyridyl]-N-[(2S)-2,3-dihydroxypropyl]-4-oxo-1H-1,6-naphthyridine-5-carboxamide]
- IC50: < 500 nM

SMILES: Cc1c(Oc2ncc(C(F)(F)F)c(C)c2-c2cc(=O)c3c(C(=O)N[C@@H](CO)C(C)(C)C)nccc3[nH]2)ccc(F)c1F [Compound 259, 2-[2-(3,4-difluoro-2-methyl-phenoxy)-4-methyl-5-(trifluoromethyl)-3-pyridyl]-N-[(1R)-1-(hydroxymethyl)-2,2-dimethyl-propyl]-4-oxo-1H-1,6-naphthyridine-5-carboxamide]
- IC50: < 500 nM

SMILES: Cc1c(Oc2ncc(C(F)(F)F)c(C)c2-c2cc(=O)c3c(-c4ncccn4)cccc3[nH]2)ccc(F)c1F [Compound 244, 2-[2-(3,4-difluoro-2-methyl-phenoxy)-4-methyl-5-(trifluoromethyl)-3-pyridyl]-5-pyrimidin-2-yl-1H-quinolin-4-one]
- IC50: < 500 nM

SMILES: Cc1c(Oc2ncc(C(F)(F)F)c(C)c2-c2cc(=O)c3c(N(C)C4CC(O)C4)nccc3[nH]2)ccc(F)c1F (centres unmarked) [Compound 185, 2-[2-(3,4-difluoro-2-methyl-phenoxy)-4-methyl-5-(trifluoromethyl)-3-pyridyl]-5-[(3-hydroxycyclobutyl)-methyl-amino]-1H-1,6-naphthyridin-4-one]
- IC50: < 500 nM

SMILES: Cc1c(Oc2ncc(C(F)(F)F)c(C)c2-c2cc(=O)c3c(-c4nncn4C)nccc3[nH]2)ccc(F)c1F [Compound 227, 2-[2-(3,4-difluoro-2-methyl-phenoxy)-4-methyl-5-(trifluoromethyl)-3-pyridyl]-5-(4-methyl-1,2,4-triazol-3-yl)-1H-1,6-naphthyridin-4-one]
- IC50: < 500 nM

SMILES: COc1cc(OC(F)(F)F)ccc1Oc1cnc(C(F)(F)F)c(C)c1-c1cc(=O)c2c(C(N)=O)nccc2[nH]1 [Compound 54, 2-[5-[2-methoxy-4-(trifluoromethoxy)phenoxy]-3-methyl-2-(trifluoromethyl)-4-pyridyl]-4-oxo-1H-1,6-naphthyridine-5-carboxamide]
- IC50: < 500 nM

SMILES: NC(=O)c1nccc2[nH]c(-c3cc4ccccc4nc3N3CC4CCCCC4C3)cc(=O)c12 (centres unmarked) [Compound 285, 2-[2-(1,3,3a,4,5,6,7,7a-octahydroisoindol-2-yl)-3-quinolyl]-4-oxo-1H-1,6-naphthyridine-5-carboxamide]
- IC50: < 500 nM

SMILES: Cc1c(Oc2ncc(C(F)(F)F)c(C)c2-c2cc(=O)c3c(N4CCN(C)CC4)nccc3[nH]2)ccc(F)c1F [Compound 386, 2-(2-(3,4-difluoro-2-methylphenoxy)-4-methyl-5-(trifluoromethyl)pyridin-3-yl)-5-(4-methylpiperazin-1-yl)-1,6-naphthyridin-4(1H)-one]
- IC50: < 500 nM

SMILES: NC(=O)c1nccc2[nH]c(-c3cc4ccccc4nc3N3CCCCCC3)cc(=O)c12 [Compound 299, 2-[2-(azepan-1-yl)-3-quinolyl]-4-oxo-1H-1,6-naphthyridine-5-carboxamide]
- IC50: < 500 nM

SMILES: CCOC(=O)c1c(-c2cc(C)c(C(F)(F)F)nc2N2CCCC(F)(F)CC2)[nH]c2ccccc2c1=O [Compound 103, ethyl 2-[2-(4,4-difluoroazepan-1-yl)-5-methyl-6-(trifluoromethyl)-3-pyridyl]-4-oxo-1H-quinoline-3-carboxylate]
- IC50: < 500 nM

SMILES: Cc1c(Oc2ncc(C(F)(F)F)c(C)c2-c2cc(=O)c3c(-c4nccn4C)nccc3[nH]2)ccc(F)c1F [Compound 239, 2-[2-(3,4-difluoro-2-methyl-phenoxy)-4-methyl-5-(trifluoromethyl)-3-pyridyl]-5-(1-methylimidazol-2-yl)-1H-1,6-naphthyridin-4-one]
- IC50: < 500 nM

SMILES: COC(=O)c1c(-c2cc3ccccc3nc2N2CCCC(F)(F)CC2)[nH]c2ccnc(C(N)=O)c2c1=O [Compound 321, Methyl 5-carbamoyl-2-[2-(4,4-difluoroazepan-1-yl)-3-quinolyl]-4-oxo-1H-1,6-naphthyridine-3-carboxylate]
- IC50: < 500 nM

SMILES: Cc1cc(F)ccc1Oc1ccc(C(F)(F)F)c(F)c1-c1cc(=O)c2c(C(N)=O)nccc2[nH]1 [Compound 55, 2-[2-fluoro-6-(4-fluoro-2-methyl-phenoxy)-3-(trifluoromethyl)phenyl]-4-oxo-1H-1,6-naphthyridine-5-carboxamide]
- IC50: < 500 nM
